Measurements reported in publication doi:10.1101/2020.06.30.176701 (bioRxiv, 2020).
Results are given in words; binding and its absence hold for the method and conditions named. Some results given as binding are weak or reduced against the parent protein; the word gives no strength.

Molecular target: T1, archaeal ribosomal P-stalk complex aP0•(aP1•aP1)3 (Pyrococcus horikoshii) (UniProt O74109+O57705)
T1 sequence 1: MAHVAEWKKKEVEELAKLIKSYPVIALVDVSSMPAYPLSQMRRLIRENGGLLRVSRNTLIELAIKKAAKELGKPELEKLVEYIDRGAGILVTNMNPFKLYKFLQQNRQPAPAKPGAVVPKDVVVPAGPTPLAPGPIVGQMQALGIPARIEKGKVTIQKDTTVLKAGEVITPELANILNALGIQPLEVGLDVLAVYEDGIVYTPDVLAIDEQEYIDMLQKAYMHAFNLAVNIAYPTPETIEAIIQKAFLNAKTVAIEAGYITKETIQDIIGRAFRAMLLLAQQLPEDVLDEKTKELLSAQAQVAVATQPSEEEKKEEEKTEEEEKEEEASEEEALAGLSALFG
T1 sequence 2: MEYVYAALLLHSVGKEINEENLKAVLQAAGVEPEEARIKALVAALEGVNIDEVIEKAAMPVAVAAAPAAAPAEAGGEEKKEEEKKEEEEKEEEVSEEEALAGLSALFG
Experiment: native gel or EMSA

B1: archaeal elongation factor 2 (aEF2) of Pyrococcus furiosus (natural protein, UniProt P61877 1-732, looked up)
chain: MGRREEMIAKIKELMLQPERIRNIGIAAHIDHGKTTLSDNLLAGAGMISEELAGKQLVLDFDEQEQARGITINAANVSMVHNYEGKDYLINLIDTPGHVDFGGDVTRAMRAIDGVIIVVDAVEGVMPQTETVVRQALREYVKPVLFINKVDRLIRELKLTPQQMMERFSKIIMDVNRLIQRYAPEEYKKKWMVRVEDGSVAFGSAYYNWALSVPFMQRTGVKFNEIIDLTLKGDNKTLRQRAPLHVVVLDMVVRHLPSPIEAQKYRIPHLWQGDINSKIGQAMLNCDPKGKMVMVITKIIIDKHAGEVATGRVWSGTVRSGQEVYLINSKRKGRIQQVGIYMGPERINMEAVPAGNIVAVTGLRDAMAGETVAEEQIEPFEALHYVSEPVVTVAIEAKNVKDLPRLIEALRQLAKEDPTLHVKIDEETGQHLLSGMGELHLEVKLYKLQKDWGIEVDVSEPIVVYRESITKPSPIVEGKSPNKHNRFYVVVEPMPDEIYQAIKEGIIPEGRVKDPKAVAKKLAELGMDYDIARGVVDIYNGNMFLDNTKGIQYLNEVMDLLIDGFHQAMDEGPLAKEPVMKVIVRLVDAQVHEDNVHRGPAQIYPAIRTAIHCAMMKAGPVLYEPYQKVIINIPYEYMGAVSREISQRRGQLIDMRQEGEVMTIIAEAPVAEMFGFAGAIRSATSGRALWSTEHAGFKRVPNELAQQIIRQIRQRKGLDPNPPTEKDVCPLF
In the case of B1, the binding is reported as “binds”.
